According to US9238815B2 (priority 2009, dated 2016):
For at least one compound, name, drawing or mass did not settle the structure. Some compounds share one wording; it may come from a single statement.

Each compound was assayed on WSN-Ren virus.
Type: cell-based, influenza A/WSN/33 virus
With `C=C(C)[C@@H]1CC[C@]2(C(=O)O)CC[C@]3(C)[C@H](CC[C@@H]4[C@@]5(C)CC[C@H](O)C(C)(C)[C@@H]5CC[C@]43C)[C@@H]12` [Betulinic Acid] the WSN-Ren virus growth was “reduce influenza virus growth”.
In the case of `CO[C@H]1C[C@@H]2CC[C@@H](C)[C@@](O)(O2)C(=O)C(=O)N2CCCC[C@H]2C(=O)O[C@H]([C@H](C)C[C@@H]2CC[C@@H](O)[C@H](OC)C2)CC(=O)[C@H](C)/C=C(\C)[C@@H](O)[C@@H](OC)C(=O)[C@H](C)C[C@H](C)/C=C/C=C/C=C/1C` [Sirolimus], the WSN-Ren virus growth is reported as “reduce influenza virus growth”.
`NC1=NC(=O)/C(=C2\CCNC(=O)c3[nH]c(Br)cc32)N1` [Hymenialdisine] was tested, and the WSN-Ren virus growth was “reduce influenza virus growth”.
